Laboratory results from US8394799B2, “Compounds that inhibit HIF-1 activity, the method for preparation thereof and the pharmaceutical composition containing them as an effective component” (Korea Research Institute of Bioscience and Biotechnology, priority 2006, dated 2013).
Some entries share one result that the patent states for a list of compounds.

Test: Acute toxicity, single oral administration in mice
Type: in vivo
Conditions: five mice
Protocol: An acute cytotoxicity assay was conducted with five-week-old SPF C57BL/6 mice (Samtako BioKorea) as follows.

Structure (SMILES)	minimal lethal dose
COC(=O)c1ccc(O)c(NC(=O)COc2ccc(C34CC5CC(CC(C5)C3)C4)cc2)c1 [Example 18, 3-[2-(4-Adamantan-1-yl-phenoxy)acetyl-amino]-4-hydroxy benzoic acid methyl ester]	at least 300 mg/kg
COC(=O)c1ccc2[nH]c(COc3ccc(C45CC6CC(CC(C6)C4)C5)cc3)nc2c1 [Example 126, 2-(4-adamantan-1-yl-phenoxymethyl)-1H-benzoimidazole-5-carboxylic acid methyl ester]	at least 300 mg/kg
